Measurements as given in paper PMC11267527.

Chains of the proteins cited; added tags and fusions are not shown.
UniProt Q9UJ55: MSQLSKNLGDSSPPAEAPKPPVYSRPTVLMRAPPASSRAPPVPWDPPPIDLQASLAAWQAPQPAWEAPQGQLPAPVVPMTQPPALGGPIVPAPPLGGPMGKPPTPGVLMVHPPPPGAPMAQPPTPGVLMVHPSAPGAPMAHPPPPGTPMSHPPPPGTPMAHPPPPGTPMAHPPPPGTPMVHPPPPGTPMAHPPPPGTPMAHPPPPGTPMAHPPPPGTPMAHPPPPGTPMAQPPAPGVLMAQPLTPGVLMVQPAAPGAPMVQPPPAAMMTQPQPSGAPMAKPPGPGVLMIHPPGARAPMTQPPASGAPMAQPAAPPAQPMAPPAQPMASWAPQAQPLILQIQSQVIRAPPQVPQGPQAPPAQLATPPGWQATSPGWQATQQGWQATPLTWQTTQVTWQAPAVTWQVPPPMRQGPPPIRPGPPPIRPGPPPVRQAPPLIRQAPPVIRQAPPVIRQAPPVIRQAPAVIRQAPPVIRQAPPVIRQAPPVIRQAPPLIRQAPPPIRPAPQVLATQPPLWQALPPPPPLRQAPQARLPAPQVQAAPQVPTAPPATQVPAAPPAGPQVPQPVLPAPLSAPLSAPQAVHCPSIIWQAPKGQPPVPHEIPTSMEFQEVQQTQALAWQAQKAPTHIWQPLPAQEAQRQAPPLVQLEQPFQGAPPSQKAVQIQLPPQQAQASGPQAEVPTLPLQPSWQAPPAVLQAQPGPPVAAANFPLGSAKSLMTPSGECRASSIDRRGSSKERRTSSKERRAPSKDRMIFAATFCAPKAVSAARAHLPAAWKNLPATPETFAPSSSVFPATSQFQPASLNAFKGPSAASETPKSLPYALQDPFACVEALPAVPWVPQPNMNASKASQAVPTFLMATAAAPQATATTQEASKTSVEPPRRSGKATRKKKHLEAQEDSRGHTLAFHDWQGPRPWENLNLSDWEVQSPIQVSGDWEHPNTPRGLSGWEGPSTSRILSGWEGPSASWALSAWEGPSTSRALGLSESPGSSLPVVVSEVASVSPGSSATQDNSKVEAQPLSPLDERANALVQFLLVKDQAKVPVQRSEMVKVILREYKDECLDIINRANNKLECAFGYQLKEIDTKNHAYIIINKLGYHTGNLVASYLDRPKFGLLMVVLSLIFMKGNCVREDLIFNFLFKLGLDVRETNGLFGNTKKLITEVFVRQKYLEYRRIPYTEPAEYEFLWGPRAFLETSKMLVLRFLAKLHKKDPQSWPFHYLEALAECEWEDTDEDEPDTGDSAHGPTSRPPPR
UniProt Q15717: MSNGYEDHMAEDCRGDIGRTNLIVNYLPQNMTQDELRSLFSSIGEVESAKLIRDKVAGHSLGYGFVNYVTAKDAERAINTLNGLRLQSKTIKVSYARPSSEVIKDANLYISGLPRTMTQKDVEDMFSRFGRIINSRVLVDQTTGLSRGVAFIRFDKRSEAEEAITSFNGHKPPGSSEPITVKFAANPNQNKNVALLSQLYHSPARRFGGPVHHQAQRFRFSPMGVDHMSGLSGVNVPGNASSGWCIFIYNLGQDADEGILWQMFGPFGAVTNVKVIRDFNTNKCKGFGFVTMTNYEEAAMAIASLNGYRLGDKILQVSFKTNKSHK
UniProt P35637: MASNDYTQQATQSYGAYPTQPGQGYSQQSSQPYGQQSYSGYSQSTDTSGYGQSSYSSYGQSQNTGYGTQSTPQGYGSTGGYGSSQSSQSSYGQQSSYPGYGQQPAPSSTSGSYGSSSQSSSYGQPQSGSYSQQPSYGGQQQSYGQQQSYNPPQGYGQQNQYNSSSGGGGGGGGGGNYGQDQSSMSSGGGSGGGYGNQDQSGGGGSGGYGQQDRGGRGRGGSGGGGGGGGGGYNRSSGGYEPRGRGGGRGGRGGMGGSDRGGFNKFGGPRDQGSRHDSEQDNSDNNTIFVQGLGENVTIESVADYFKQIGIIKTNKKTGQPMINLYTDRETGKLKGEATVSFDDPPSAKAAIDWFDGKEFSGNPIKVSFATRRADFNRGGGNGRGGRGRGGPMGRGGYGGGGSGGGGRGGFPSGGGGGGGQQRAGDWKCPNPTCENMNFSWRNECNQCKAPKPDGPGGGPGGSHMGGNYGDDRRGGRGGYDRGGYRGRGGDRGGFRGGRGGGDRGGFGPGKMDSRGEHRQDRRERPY
UniProt P17096: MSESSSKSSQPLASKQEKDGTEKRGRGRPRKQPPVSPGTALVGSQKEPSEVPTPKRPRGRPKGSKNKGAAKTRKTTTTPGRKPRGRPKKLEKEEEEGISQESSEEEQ
UniProt P11940: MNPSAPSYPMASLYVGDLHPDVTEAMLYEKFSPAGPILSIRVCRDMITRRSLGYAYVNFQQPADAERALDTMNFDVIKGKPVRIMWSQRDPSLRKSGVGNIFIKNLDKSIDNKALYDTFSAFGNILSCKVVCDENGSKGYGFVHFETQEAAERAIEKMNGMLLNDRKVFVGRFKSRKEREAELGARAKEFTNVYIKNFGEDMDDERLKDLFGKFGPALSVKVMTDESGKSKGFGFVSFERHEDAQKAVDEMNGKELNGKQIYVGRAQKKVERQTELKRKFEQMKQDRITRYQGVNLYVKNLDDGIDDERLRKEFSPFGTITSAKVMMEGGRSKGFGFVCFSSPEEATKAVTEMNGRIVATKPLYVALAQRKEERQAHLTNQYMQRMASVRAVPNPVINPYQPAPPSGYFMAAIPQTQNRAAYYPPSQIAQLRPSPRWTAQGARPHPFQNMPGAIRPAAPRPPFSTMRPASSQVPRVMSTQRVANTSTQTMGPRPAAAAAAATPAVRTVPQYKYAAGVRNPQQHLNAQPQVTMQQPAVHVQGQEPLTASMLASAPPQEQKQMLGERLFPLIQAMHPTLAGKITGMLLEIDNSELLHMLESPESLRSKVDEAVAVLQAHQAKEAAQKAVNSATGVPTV
UniProt P67809: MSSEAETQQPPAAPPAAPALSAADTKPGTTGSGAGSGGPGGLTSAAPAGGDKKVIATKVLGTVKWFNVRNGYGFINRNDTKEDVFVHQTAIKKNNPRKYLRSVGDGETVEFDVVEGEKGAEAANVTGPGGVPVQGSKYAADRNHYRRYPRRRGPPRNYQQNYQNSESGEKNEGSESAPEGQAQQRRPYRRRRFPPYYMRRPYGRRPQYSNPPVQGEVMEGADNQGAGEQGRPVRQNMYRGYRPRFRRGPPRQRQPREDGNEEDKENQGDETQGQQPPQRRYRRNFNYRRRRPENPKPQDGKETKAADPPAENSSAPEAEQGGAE
UniProt P07305: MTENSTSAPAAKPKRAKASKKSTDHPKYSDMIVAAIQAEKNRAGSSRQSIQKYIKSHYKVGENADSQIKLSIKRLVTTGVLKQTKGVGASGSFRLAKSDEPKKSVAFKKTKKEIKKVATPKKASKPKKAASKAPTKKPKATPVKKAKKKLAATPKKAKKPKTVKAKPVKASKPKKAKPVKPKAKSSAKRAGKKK
UniProt P16403: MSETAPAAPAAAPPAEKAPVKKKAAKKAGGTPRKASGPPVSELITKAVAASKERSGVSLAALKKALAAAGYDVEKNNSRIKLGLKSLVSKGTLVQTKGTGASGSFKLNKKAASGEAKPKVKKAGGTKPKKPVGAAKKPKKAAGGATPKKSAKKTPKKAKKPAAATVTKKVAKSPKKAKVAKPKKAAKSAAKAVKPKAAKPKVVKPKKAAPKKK
UniProt P16402: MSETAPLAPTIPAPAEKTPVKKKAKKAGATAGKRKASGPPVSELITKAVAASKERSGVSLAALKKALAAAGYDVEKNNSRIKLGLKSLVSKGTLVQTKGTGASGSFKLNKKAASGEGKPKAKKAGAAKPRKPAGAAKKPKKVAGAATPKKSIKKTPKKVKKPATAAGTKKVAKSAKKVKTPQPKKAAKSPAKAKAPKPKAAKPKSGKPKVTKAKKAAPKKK
UniProt Q92522: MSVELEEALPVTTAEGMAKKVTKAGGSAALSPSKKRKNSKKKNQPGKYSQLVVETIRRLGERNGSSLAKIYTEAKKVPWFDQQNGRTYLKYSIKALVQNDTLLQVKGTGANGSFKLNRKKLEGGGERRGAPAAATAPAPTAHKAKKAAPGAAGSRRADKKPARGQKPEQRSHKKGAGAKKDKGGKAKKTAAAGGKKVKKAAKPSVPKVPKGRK

What was measured:
[1] = biological target: HA-miniTurbo-MAGEL2 WT (biotin ligase fusion for BioID) (human) (UniProt Q9UJ55); assay: proximity labelling; BioID: HA-miniTurbo-MAGEL2 fusions transiently expressed in HEK293T; 200 uM biotin for 4 h in starvation medium; RIPA lysis; biotinylated proteins captured on streptavidin magnetic beads overnight at 4 C; LC-MS/MS; proteins in at least two of three replicates
[2] = biological target: WT GFP-MAGEL2 (GFPspark fused N-terminally to full-length wild-type human MAGEL2) (human) (UniProt Q9UJ55); assay: affinity purification with mass spectrometry; GFP-CoIP: GFPspark-MAGEL2 fusions transiently expressed in HEK293T; IP lysis buffer (25 mM Tris-HCl pH 7.4, 150 mM NaCl, 1 mM EDTA, 1% Igepal CA-630, 5% glycerol); anti-GFP covalently coupled to Protein A beads, overnight at 4 C; elution with 2% formic acid; LC-MS/MS; proteins in at least two of three replicates

binding [1]	binding [2]	Molecule
binds	binds	ELAVL1 (from UniProt Q15717 1-326)
binds	binds	FUS (from UniProt P35637 1-526)
binds	binds	HMGA1 (from UniProt P17096 1-107)
binds	binds	PABPC1 (from UniProt P11940 1-636)
binds	binds	YBX1 (from UniProt P67809 1-324)
binds	binds	histone H1.0 (from UniProt P07305 1-194)
binds	binds	histone H1.2 (from UniProt P16403 1-213)
binds	binds	histone H1.3 (from UniProt P16402 1-221)
binds	binds	histone H1.10 (from UniProt Q92522 1-213)
binds	binds	HMGN1 (protein, UniProt P05114 1-100) MPKRKVSSAEGAAKEEPKRRSARLSAKPPAKVEAKPKKAAAKDKSSDKKVQTKGKRGAKGKQAEVANQETKEDLPAENGETKTEESPASDEAGEKEAKSD
binds	binds	HNRNPA0 (protein, UniProt Q13151 1-305) MENSQLCKLFIGGLNVQTSESGLRGHFEAFGTLTDCVVVVNPQTKRSRCFGFVTYSNVEEADAAMAASPHAVDGNTVELKRAVSREDSARPGAHAKVKKLFVGGLKGDVAEGDLIEHFSQFGTVEKAEIIADKQSGKKRGFGFVYFQNHDAADKAAVVKFHPIQGHRVEVKKAVPKEDIYSGGGGGGSRSSRGGRGGRGRGGGRDQNGLSKGGGGGYNSYGGYGGGGGGGYNAYGGGGGGSSYGGSDYGNGFGGFGSYSQHQSSYGPMKSGGGGGGGGSSWGGRSNSGPYRGGYGGGGGYGGSSF
binds	binds	ILF3 (protein, UniProt Q12906 1-894) MRPMRIFVNDDRHVMAKHSSVYPTQEELEAVQNMVSHTERALKAVSDWIDEQEKGSSEQAESDNMDVPPEDDSKEGAGEQKTEHMTRTLRGVMRVGLVAKGLLLKGDLDLELVLLCKEKPTTALLDKVADNLAIQLAAVTEDKYEILQSVDDAAIVIKNTKEPPLSLTIHLTSPVVREEMEKVLAGETLSVNDPPDVLDRQKCLAALASLRHAKWFQARANGLKSCVIVIRVLRDLCTRVPTWGPLRGWPLELLCEKSIGTANRPMGAGEALRRVLECLASGIVMPDGSGIYDPCEKEATDAIGHLDRQQREDITQSAQHALRLAAFGQLHKVLGMDPLPSKMPKKPKNENPVDYTVQIPPSTTYAITPMKRPMEEDGEEKSPSKKKKKIQKKEEKAEPPQAMNALMRLNQLKPGLQYKLVSQTGPVHAPIFTMSVEVDGNSFEASGPSKKTAKLHVAVKVLQDMGLPTGAEGRDSSKGEDSAEETEAKPAVVAPAPVVEAVSTPSAAFPSDATAEQGPILTKHGKNPVMELNEKRRGLKYELISETGGSHDKRFVMEVEVDGQKFQGAGSNKKVAKAYAALAALEKLFPDTPLALDANKKKRAPVPVRGGPKFAAKPHNPGFGMGGPMHNEVPPPPNLRGRGRGGSIRGRGRGRGFGGANHGGYMNAGAGYGSYGYGGNSATAGYSQFYSNGGHSGNASGGGGGGGGGSSGYGSYYQGDNYNSPVPPKHAGKKQPHGGQQKPSYGSGYQSHQGQQQSYNQSPYSNYGPPQGKQKGYNHGQGSYSYSNSYNSPGGGGGSDYNYESKFNYSGSGGRSGGNSYGSGGASYNPGSHGGYGGGSGGGSSYQGKQGGYSQSNYNSPGSGQNYSGPPSSYQSSQGGYGRNADHSMNYQYR

These are yes or no findings as the source states them, for the method shown. In cells and extracts the contact can be indirect. These calls come from enrichment with a bait or labelling near it, and not all partners need be listed.
